Here are results for 1 sequence from paper PMC5983628.

Amino acid sequences for entries named in this document (tags omitted). A change or cut given only in a name is not applied to a line headed by its entry.
UniProt P06612: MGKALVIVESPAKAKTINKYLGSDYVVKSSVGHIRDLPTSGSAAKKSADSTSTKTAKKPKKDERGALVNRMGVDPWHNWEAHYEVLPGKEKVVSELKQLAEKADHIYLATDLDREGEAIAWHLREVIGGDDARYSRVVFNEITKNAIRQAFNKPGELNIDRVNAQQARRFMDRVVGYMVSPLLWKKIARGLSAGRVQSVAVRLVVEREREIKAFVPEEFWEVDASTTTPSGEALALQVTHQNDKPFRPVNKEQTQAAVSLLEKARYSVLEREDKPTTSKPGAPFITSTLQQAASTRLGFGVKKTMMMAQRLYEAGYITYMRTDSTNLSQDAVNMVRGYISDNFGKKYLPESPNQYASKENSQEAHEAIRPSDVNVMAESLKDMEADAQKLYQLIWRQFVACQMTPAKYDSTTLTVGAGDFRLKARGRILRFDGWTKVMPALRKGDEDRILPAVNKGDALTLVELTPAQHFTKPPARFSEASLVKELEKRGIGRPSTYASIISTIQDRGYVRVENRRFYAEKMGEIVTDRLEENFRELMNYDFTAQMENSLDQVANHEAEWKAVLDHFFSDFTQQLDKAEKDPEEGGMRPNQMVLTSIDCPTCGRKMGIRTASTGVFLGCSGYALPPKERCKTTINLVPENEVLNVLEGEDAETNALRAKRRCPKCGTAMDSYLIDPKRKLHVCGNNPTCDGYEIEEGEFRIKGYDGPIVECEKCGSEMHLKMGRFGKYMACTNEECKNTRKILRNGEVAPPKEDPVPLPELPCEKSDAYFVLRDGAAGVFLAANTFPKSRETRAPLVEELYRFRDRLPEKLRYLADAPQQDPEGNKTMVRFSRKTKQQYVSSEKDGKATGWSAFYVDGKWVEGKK

The exact form of at least one protein or probe is not confirmed.

Series [1] concerns the target E. coli DNA topoisomerase I, acetylated by acetyl phosphate (Escherichia coli) (UniProt P06612). Description: EMSA. Particulars: 5 mM Mg2+, 10 mM EDTA, acetyl phosphate-treated enzyme, average over protein:DNA ratios, 3 replicates; EMSA: 150 mM Tris-HCl pH 8.0, 1 mg/mL BSA, 10% glycerol, 5 mM MgCl2, 10 mM EDTA, 37 C, 5 min; 6% native PAGE in 0.5x TBE; recombinant protein; label: 5'-32P; folded or branched DNA; scale: fold decrease in bound fraction vs nonacetylated. For orientation: A gel shift assay detects complexes by their altered migration in electrophoresis.

In series [2] the target is E. coli DNA topoisomerase I, nonacetylated (Escherichia coli) (UniProt P06612). As to the kind of experiment: EMSA. The note with it: 5 mM Mg2+, 10 mM EDTA; EMSA: 150 mM Tris-HCl pH 8.0, 1 mg/mL BSA, 10% glycerol, 5 mM MgCl2, 10 mM EDTA, 37 C, 5 min; 6% native PAGE in 0.5x TBE; recombinant protein; label: 5'-32P; folded or branched DNA.

As to “GCCCTGAAAGATTATGCAATGCGCTTTGGGCAAACCAAGAGAGCATAATCTTTCAGGGC [59-base oligonucleotide substrate]”, in series [1], the binding signal turned out to be 2. Moreover, the binding result in series [2] is given as “binds”.
